Some of the results follow. The main result of the screen is listed elsewhere. These columns were measured beside it and carry no call. The list favours compounds with an active or inconclusive main result. The note in brackets gives the kind of curve behind each potency; many fits are weak.
Assay: qHTS Assay for Lipid Storage Modulators in Drosophila S3 Cells;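 for cell number change: cells counted by Cell Tracker Red CMTPX staining in the red channel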
Details: BODIPY lipid droplet fluorescence, 18-24 h; for cell number change: measured here: cell count max response, cells fed with added oleic acid
Method in brief: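 Drosophila S3 cells got compounds at several concentrations plus oleic acid (400 uM solution). Laser-scanning cytometry with 488 nm excitation read lipid droplets at 500-530 nm and cells at 575-640 nm. Percent activity was relative to 20 uM Triacsin C.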

[1] = measured here: cell number channel AC50, cells fed with added oleic acid
[2] = measured here: lipid fluorescence (Fed channel) AC50, cells fed with added oleic acid

**Q.** Which results are given for CC1=NN2C(=N)/C(=C\c3cc(C)n(-c4ccccc4)c3C)C(=O)N=C2S1?
**A.** cell number change: -43%; AC50 [1]: 10.3 µM [falling, partial curve, poor fit]; AC50 [2]: 29.1 µM [falling, single point]

**Q.** Which results are given for CCn1c(SCC(=O)Nc2ccc3c(c2)OCO3)nc2c(c1=O)SC(C)C2 (stereo not drawn)?
**A.** cell number change: 12.2%; AC50 [1]: 0.517 µM [rising, full curve, poor fit]; AC50 [2]: 4.11 µM [rising, partial curve]

**Q.** What does the source list for CCc1cccc(NC(=S)N(CCOC)C(C)c2ccco2)c1 (stereo not drawn)?
**A.** cell number change: 19%; AC50 [2]: 32.6 µM [rising, partial curve, poor fit]

**Q.** With Cc1c(Cl)cccc1N(CC(=O)NC1CCCCC1)S(C)(=O)=O as the compound, how does the cell number change read?
**A.** -4.14%

**Q.** What about the AC50 [2] of the same compound?
**A.** 14.6 µM [falling, partial curve, poor fit]

**Q.** Which cell number change does the source give for COc1ccc(-c2cc(-c3ccc(Cl)cc3)n[nH]2)c(O)c1 here?
**A.** -20.1%

**Q.** And the AC50 [2]?
**A.** 10.3 µM [falling, partial curve]

**Q.** With N#C/C(=C/c1ccc(N2CCCCCC2)o1)c1cccc(F)c1 as the compound, how does the cell number change read?
**A.** -33.1%

**Q.** And the AC50 [2]?
**A.** 29.1 µM [falling, single point]

**Q.** What does the source list for COC(=O)c1ccc(CNC(=O)COC(=O)CCC2CCCC2)cc1?
**A.** cell number change: 0.264%; AC50 [1]: 2.91 µM [falling, partial curve]; AC50 [2]: 2.06 µM [rising, partial curve]

**Q.** Which results are given for Cc1ccc(O)c(-c2cc3ccccc3[nH]2)c1?
**A.** cell number change: -123%; AC50 [2]: 23.1 µM [falling, single point]

**Q.** For COc1ccccc1CNC(=O)CCS(=O)(=O)c1cccc2nonc12, which cell number change is on record?
**A.** -0.785%

**Q.** Which cell number change does the source give for COc1ccccc1NS(=O)(=O)c1cc(C(=O)N2CCN(C/C=C/c3ccccc3)CC2)ccc1C here?
**A.** 21.1%

**Q.** Which results are given for Cc1ccccc1CC(=O)N1CCN(S(=O)(=O)c2cccs2)CC1?
**A.** cell number change: 39%; AC50 [2]: 11.6 µM [rising, partial curve]

**Q.** With CC(=O)Nc1ccc(NC(=O)c2c(-c3ccccc3)noc2C)cn1 as the compound, how does the cell number change read?
**A.** 30.6%

**Q.** What about the AC50 [1] of the same compound?
**A.** 29.1 µM [rising, single point]

**Q.** With COC(=O)c1c(C)[nH]c(C(=O)COC(=O)CCNS(=O)(=O)c2cccc(C(F)(F)F)c2)c1C as the compound, how does the cell number change read?
**A.** -2.89%

**Q.** With Cc1ccc(C(C)NC(=O)Cc2cccs2)cc1C (stereo not drawn) as the compound, how does the cell number change read?
**A.** 12.4%

**Q.** What about the AC50 [2] of the same compound?
**A.** 0.13 µM [falling, full curve, poor fit]

**Q.** For Cc1ccc(S(=O)(=O)NCCC(=O)OCC(=O)N(Cc2ccccc2)C(C)(C)C)cc1C, which cell number change is on record?
**A.** 16.8%

**Q.** With O=C(COc1nc2ccccc2nc1N1CCOCC1)NC1CCCCC1 as the compound, how does the AC50 [1] read?
**A.** 0.517 µM [rising, partial curve, poor fit]

**Q.** For Cc1ccc(NC(=O)Cc2ccccc2F)cc1S(=O)(=O)N1CCCCCC1, which cell number change is on record?
**A.** -0.112%

**Q.** For Nc1c(C(=O)NCc2ccco2)c2nc3ccccc3nc2n1CCc1ccccc1, which cell number change is on record?
**A.** -15.2%

**Q.** And the AC50 [1]?
**A.** 1.3 µM [rising, partial curve]

**Q.** And the AC50 [2]?
**A.** 1.64 µM [rising, partial curve]

**Q.** Which cell number change does the source give for O=Cc1c(NCc2ccccc2F)c2ccccc2[nH]c1=O here?
**A.** -7.42%

**Q.** Which results are given for O=S(=O)(NCc1cccnc1)c1cc(Cl)ccc1Cl?
**A.** cell number change: 13.5%; AC50 [2]: 0.651 µM [falling, single point]

**Q.** For COc1ccc(N2C(=NC(=O)C3CCCO3)SC3CS(=O)(=O)CC32)cc1 (stereo not drawn), which cell number change is on record?
**A.** -11.9%

**Q.** What about the AC50 [2] of the same compound?
**A.** 29.1 µM [falling, single point]

**Q.** For CCOC(=O)c1c(NC(=O)C2CCN(S(=O)(=O)c3cccs3)CC2)sc(C)c1C, which cell number change is on record?
**A.** -7.22%

**Q.** What does the source list for CC1CC(C)(C)Nc2ccc(N=O)cc21 (stereo not drawn)?
**A.** cell number change: -92.3%; AC50 [1]: 16.4 µM [falling, partial curve]; AC50 [2]: 20.6 µM [falling, partial curve]

**Q.** For COc1ccc(CSc2nc(C)[nH]c2[N+](=O)[O-])cc1[N+](=O)[O-], which AC50 [2] is on record?
**A.** 10.3 µM [rising, partial curve]

**Q.** For COc1ccccc1NC(=O)CSc1nnc(-c2ccc(C)cc2)o1, which cell number change is on record?
**A.** 32.6%

**Q.** And the AC50 [1]?
**A.** 8.2 µM [rising, partial curve, poor fit]

**Q.** For CC1(C)CN(c2ccc(N3CC(C)(C)C3=O)cc2)C1=O, which cell number change is on record?
**A.** 28.5%

**Q.** What about the AC50 [2] of the same compound?
**A.** 6.51 µM [falling, single point]

**Q.** What does the source list for Cc1cccc(N2CC(c3nc4ccccc4[nH]3)CC2=O)c1 (stereo not drawn)?
**A.** cell number change: 21.7%; AC50 [2]: 6.51 µM [rising, single point]

**Q.** Which cell number change does the source give for CCC(C)(C)NC(=O)C(c1ccc(O)cc1)N(Cc1ccco1)C(=O)CCC(=O)Nc1ccccn1 (stereo not drawn) here?
**A.** -1.68%

**Q.** And the AC50 [2]?
**A.** 0.206 µM [rising, single point]

**Q.** Which results are given for CSCCC(NS(=O)(=O)c1ccc(C)cc1)C(=O)NCCc1c[nH]c2ccccc12 (stereo not drawn)?
**A.** cell number change: 23.5%; AC50 [2]: 4.61 µM [rising, partial curve]

**Q.** Which cell number change does the source give for Cc1c(C)n(-c2ccccc2)c2ncnc(NCCN(C)C)c12 here?
**A.** -4.33%

**Q.** What about the AC50 [2] of the same compound?
**A.** 0.058 µM [falling, full curve, poor fit]

**Q.** Which cell number change does the source give for CCNc1nc(NCC)n2c(SCC(=O)Nc3c(C)cccc3C)nnc2n1 here?
**A.** 8.33%

**Q.** With Cc1ccc(CNC(=O)c2ccc(N3CCC4(CC3)CC(c3ccccc3)=NO4)c(NC(=O)c3ccc(Cl)c([N+](=O)[O-])c3)c2)cc1 as the compound, how does the cell number change read?
**A.** -19.6%

**Q.** Which cell number change does the source give for O=C(C1CCC1)N1CCN(c2ccc(Cl)cc2)CC1 here?
**A.** -7.41%

**Q.** Which cell number change does the source give for CC(=O)c1ccc(OCc2cc(C(=O)NCCc3ccc(Cl)cc3)no2)cc1 here?
**A.** 46.2%

**Q.** What about the AC50 [1] of the same compound?
**A.** 5.17 µM [rising, partial curve]

**Q.** With CCCN(CCO)Cc1ccc2ccccc2c1 as the compound, how does the cell number change read?
**A.** 17.1%

**Q.** And the AC50 [2]?
**A.** 4.61 µM [falling, full curve, poor fit]

**Q.** Which AC50 [1] does the source give for CN(Cc1ccc(Cl)s1)C(=O)CCl here?
**A.** 3.26 µM [falling, partial curve]

**Q.** What about the AC50 [2] of the same compound?
**A.** 4.61 µM [falling, partial curve]

**Q.** With Cc1ccc(NC(=O)COC(=O)c2ccc3c(=O)n4c(nc3c2)CCC4)c(Br)c1 as the compound, how does the cell number change read?
**A.** -55.4%

**Q.** And the AC50 [1]?
**A.** 32.6 µM [falling, partial curve, poor fit]

**Q.** And the AC50 [2]?
**A.** 6.51 µM [rising, single point]

**Q.** Which cell number change does the source give for Cc1ccc2[nH]c(=O)c(CN(CCCN3CCOCC3)C(=O)Nc3cccc(Cl)c3)cc2c1 here?
**A.** 3.05%

**Q.** What does the source list for CCCCOc1ccc(C(=O)Nc2cccc(C)n2)cc1?
**A.** cell number change: 21.9%; AC50 [2]: 3.26 µM [rising, single point]

**Q.** With Cc1ccc(OCc2nnc(SCC(=O)Nc3ncc(C)s3)o2)cc1 as the compound, how does the cell number change read?
**A.** -4.01%

**Q.** What about the AC50 [2] of the same compound?
**A.** 1.3 µM [falling, full curve]

Source: PubChem BioAssay AID2685 (National Center for Advancing Translational Sciences (NCATS), 2010)
